# Laboratory results: PubChem BioAssay AID743121 (NCATS, 2013)
# Assay: 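Partners whose loss is lethal together with topoisomerase I blockade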 (primary screen)
# System: MDA-MB-231 cells, a human breast cancer line
# Reagents: single siRNA against human genes, 20 nM siRNA (0.8 pmol per well)
# Duration: 120 h (drug added 48 h after transfection, read 72 h later)
# Challenge: camptothecin 20 nM (about EC30) for 72 h; vehicle 0.1% DMSO in parallel plates
# Read-out: 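CellTiter-Glo ATP signal, scaled to control siRNA as percent viability; sensitisation given as log2 of untreated divided by camptothecin-treated viability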
# Reading the numbers: log2 vehicle/camptothecin viability: higher = stronger sensitisation to camptothecin; viability with camptothecin: higher = more viable cells
# Call rule: 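Each gene scored by redundant siRNA activity (RSA) over its individual siRNA ratios; a gene is called active at p < 0.001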
# In all, the deposit lists about 26,000 reagents; shown is a part drawn at random. 167 of them (0.63%) count as active. 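Calls are per gene from RSA p-values that are not deposited; an individual active-marked siRNA can sensitise only weakly.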 A number with no mark means an inactive call. The numbers tell different reagents against one gene apart. Not all columns of the deposit are shown.
gene,siRNA no.,log2 vehicle/camptothecin viability,viability with camptothecin (% of control)
DHRSX (GeneID 207063),1,0.0423,86.3
DHRSX (GeneID 207063),2,-0.231,95.3
DHRSX (GeneID 207063),3,-0.126,75.9
DHRSX (GeneID 207063),4,-0.437,88.2
CSF2 (GeneID 1437),1,0.239,74.9
CSF2 (GeneID 1437),2,-0.292,68.9
CSF2 (GeneID 1437),3,-0.772,56.8
CSF2 (GeneID 1437),4,-0.108,73.4
SLC2A2 (GeneID 6514),1,0.695,17
SLC2A2 (GeneID 6514),2,0.215,92.2
SLC2A2 (GeneID 6514),3,0.0644,112
SLC2A2 (GeneID 6514),4,0.143,79.3
ANTXR2 (GeneID 118429),1,-0.169,107
ANTXR2 (GeneID 118429),2,-0.0666,95.8
ANTXR2 (GeneID 118429),3,0.149,90.7
ANTXR2 (GeneID 118429),4,-0.333,63.7
TTBK2 (GeneID 146057),1,0.0894,92.7
TTBK2 (GeneID 146057),2,-0.539,109
TTBK2 (GeneID 146057),3,0.0174,94.9
TTBK2 (GeneID 146057),4,-0.736,41.4
PI4KA (GeneID 5297),1,-0.29,88.5
PI4KA (GeneID 5297),2,-0.245,58.6
PI4KA (GeneID 5297),3,-0.757,82.7
PI4KA (GeneID 5297),4,-0.272,73.3
LYZ (GeneID 4069),1,-0.501,97.5
LYZ (GeneID 4069),2,-0.362,80
LYZ (GeneID 4069),3,0.5,53.1
LYZ (GeneID 4069),4,-0.0762,48.4
DNAJB9 (GeneID 4189),1,-0.0345,84.6
DNAJB9 (GeneID 4189),2,0.0655,95.3
DNAJB9 (GeneID 4189),3,-0.442,80.8
DNAJB9 (GeneID 4189),4,0.0668,89.8
TRAT1 (GeneID 50852),1,-0.186,107
TRAT1 (GeneID 50852),2,-0.33,35.1
TRAT1 (GeneID 50852),3,0.136,71.8
TRAT1 (GeneID 50852),4,-0.983,58.8
FBXL17 (GeneID 64839),1,-0.0234,108
FBXL17 (GeneID 64839),2,-0.433,8.27
FBXL17 (GeneID 64839),3,-0.0818,55.2
FBXL17 (GeneID 64839),4,-0.313,87.8
CLEC5A (GeneID 23601),1,-0.062,69.9
CLEC5A (GeneID 23601),2,-0.273,94.1
CLEC5A (GeneID 23601),3,0.139,59
CLEC5A (GeneID 23601),4,-0.83,39.3
CDKN1C (GeneID 1028),1,-0.199,78.3
CDKN1C (GeneID 1028),2,-0.282,58
CDKN1C (GeneID 1028),3,-0.668,110
CDKN1C (GeneID 1028),4,0.195,72.6
TENM3 (GeneID 55714),1,0.167,35
TENM3 (GeneID 55714),2,-0.332,111
TENM3 (GeneID 55714),3,0.187,56.4
TENM3 (GeneID 55714),4,-0.827,45.1
TGM2 (GeneID 7052),1,1.03,23.9
TGM2 (GeneID 7052),2,0.925,7.63
TGM2 (GeneID 7052),3,-0.181,85.4
TGM2 (GeneID 7052),4,-0.311,80.7
NME9 (GeneID 347736),1,0.525,36.1
NME9 (GeneID 347736),2,-0.282,68.5
NME9 (GeneID 347736),3,-0.308,113
NME9 (GeneID 347736),4,0.879,44.4
DKK3 (GeneID 27122),1,-0.224,70.5
DKK3 (GeneID 27122),2,0.0139,90.1
DKK3 (GeneID 27122),3,-0.088,89.8
DKK3 (GeneID 27122),4,0.0898,69.7
MYBL2 (GeneID 4605),1,-0.108,64.3
MYBL2 (GeneID 4605),2,-0.662,40.1
MYBL2 (GeneID 4605),3,-0.159,76.6
MYBL2 (GeneID 4605),4,-0.0906,93.8

Ordered by “log2 vehicle/camptothecin viability” (high to low): some entries from above.
gene,siRNA no.,log2 vehicle/camptothecin viability,viability with camptothecin (% of control)
TGM2 (GeneID 7052),1,1.03,23.9
TGM2 (GeneID 7052),2,0.925,7.63
CDKN1C (GeneID 1028),4,0.195,72.6
TENM3 (GeneID 55714),3,0.187,56.4
TENM3 (GeneID 55714),1,0.167,35
TGM2 (GeneID 7052),3,-0.181,85.4
CDKN1C (GeneID 1028),2,-0.282,58
TGM2 (GeneID 7052),4,-0.311,80.7
TENM3 (GeneID 55714),2,-0.332,111
CDKN1C (GeneID 1028),3,-0.668,110
TENM3 (GeneID 55714),4,-0.827,45.1
